Reference: the supplement of paper PMC12067093, “Discovery and optimisation of a covalent ligand for TRIM25 and its application to targeted protein ubiquitination” (Chemical Science, 2025)
The other results are listed elsewhere or left out.

Protein sequences, listed by entry. Tags and fused reporters are not part of them. Lines headed by an entry give the natural chain unless they say otherwise; changes in a name come on top.
UniProt Q6IA86: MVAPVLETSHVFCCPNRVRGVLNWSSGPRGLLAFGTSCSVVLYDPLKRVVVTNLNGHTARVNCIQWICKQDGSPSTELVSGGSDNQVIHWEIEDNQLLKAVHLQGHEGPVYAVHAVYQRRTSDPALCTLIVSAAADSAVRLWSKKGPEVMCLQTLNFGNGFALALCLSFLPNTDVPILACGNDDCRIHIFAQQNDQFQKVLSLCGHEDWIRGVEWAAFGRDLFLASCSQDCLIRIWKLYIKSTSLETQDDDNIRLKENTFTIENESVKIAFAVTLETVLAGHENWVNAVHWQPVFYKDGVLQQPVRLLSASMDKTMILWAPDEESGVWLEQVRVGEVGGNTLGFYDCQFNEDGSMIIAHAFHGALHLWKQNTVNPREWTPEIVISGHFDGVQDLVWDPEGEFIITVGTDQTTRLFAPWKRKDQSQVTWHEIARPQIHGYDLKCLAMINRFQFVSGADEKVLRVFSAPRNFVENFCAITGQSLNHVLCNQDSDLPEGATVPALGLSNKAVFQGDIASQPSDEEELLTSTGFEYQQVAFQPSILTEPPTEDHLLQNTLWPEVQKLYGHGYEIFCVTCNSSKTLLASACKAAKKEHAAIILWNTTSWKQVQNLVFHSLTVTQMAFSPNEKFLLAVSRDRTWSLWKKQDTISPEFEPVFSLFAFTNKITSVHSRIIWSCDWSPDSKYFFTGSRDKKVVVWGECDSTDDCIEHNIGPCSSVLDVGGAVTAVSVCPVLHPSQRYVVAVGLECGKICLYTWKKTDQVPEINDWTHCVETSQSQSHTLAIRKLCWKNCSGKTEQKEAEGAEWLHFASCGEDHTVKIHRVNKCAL
UniProt Q13347, whole entry, looked up: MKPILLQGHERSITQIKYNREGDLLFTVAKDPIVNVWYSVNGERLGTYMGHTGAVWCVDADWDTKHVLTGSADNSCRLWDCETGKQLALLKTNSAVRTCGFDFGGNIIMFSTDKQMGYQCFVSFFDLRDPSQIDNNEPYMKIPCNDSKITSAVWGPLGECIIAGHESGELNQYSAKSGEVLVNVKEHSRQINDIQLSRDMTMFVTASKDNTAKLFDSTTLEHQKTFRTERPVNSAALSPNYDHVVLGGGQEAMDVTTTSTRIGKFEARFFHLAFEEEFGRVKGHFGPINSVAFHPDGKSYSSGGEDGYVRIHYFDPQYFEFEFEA
UniProt Q9HCE0: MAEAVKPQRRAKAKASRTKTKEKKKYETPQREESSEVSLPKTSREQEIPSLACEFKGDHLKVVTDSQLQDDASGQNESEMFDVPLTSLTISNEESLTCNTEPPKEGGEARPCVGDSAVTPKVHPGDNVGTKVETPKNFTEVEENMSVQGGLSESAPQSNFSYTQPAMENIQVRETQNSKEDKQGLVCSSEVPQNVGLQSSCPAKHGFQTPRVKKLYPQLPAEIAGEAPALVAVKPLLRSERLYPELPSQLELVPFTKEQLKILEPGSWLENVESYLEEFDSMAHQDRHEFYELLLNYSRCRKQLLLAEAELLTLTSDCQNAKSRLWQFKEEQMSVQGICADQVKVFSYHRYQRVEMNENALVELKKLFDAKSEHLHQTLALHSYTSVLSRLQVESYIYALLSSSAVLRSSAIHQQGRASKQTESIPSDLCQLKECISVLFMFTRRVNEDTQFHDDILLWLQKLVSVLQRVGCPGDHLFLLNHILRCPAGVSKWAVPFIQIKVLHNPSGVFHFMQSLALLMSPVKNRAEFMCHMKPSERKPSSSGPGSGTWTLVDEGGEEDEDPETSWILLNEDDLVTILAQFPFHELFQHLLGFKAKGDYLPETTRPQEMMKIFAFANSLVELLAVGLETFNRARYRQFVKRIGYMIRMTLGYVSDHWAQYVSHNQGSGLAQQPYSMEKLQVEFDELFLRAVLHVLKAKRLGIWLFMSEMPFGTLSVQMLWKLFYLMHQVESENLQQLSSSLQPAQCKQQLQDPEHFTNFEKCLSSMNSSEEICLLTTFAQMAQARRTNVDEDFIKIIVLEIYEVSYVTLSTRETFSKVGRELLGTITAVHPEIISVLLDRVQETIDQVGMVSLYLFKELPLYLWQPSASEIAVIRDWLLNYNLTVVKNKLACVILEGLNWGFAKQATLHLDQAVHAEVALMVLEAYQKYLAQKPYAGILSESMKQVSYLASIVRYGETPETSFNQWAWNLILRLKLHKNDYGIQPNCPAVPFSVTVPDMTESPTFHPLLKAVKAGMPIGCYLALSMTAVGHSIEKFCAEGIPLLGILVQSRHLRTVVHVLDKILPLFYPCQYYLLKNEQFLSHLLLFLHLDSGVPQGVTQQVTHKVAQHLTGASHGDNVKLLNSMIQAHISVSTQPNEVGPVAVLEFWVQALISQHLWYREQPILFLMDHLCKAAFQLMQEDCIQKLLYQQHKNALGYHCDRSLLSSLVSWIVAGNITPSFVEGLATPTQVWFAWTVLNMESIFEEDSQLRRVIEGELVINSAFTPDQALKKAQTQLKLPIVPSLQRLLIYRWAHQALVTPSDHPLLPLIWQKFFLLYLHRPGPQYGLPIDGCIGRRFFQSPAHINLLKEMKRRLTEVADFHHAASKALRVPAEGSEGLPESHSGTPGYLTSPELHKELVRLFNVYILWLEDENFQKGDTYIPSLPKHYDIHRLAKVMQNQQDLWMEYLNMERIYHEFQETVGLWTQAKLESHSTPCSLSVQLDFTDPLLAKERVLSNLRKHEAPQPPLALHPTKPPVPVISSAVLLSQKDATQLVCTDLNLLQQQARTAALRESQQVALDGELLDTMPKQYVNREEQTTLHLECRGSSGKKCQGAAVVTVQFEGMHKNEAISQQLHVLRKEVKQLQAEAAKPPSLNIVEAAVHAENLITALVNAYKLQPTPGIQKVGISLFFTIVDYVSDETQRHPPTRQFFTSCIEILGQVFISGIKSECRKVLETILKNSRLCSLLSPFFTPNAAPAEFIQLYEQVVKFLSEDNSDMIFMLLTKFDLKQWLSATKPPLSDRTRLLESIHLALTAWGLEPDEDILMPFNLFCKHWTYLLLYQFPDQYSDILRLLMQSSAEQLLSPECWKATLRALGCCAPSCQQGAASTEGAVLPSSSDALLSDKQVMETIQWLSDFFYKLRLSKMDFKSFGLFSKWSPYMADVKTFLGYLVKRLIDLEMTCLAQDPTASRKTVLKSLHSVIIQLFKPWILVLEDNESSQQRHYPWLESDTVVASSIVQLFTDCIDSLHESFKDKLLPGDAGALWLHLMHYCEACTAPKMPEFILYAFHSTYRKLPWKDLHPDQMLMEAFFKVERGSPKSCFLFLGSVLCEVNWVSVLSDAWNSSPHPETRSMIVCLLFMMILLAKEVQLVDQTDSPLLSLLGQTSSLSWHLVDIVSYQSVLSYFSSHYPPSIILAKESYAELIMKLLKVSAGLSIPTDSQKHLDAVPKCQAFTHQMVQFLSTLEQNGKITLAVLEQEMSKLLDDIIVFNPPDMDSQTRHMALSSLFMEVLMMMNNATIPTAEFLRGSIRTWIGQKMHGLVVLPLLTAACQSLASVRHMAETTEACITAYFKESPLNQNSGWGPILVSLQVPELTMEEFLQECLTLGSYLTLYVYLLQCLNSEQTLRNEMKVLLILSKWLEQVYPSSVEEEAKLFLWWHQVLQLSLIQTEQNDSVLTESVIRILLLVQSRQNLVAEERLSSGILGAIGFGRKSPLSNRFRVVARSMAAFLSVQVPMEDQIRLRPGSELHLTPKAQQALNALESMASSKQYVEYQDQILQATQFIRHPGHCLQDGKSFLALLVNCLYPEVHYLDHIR
UniProt P07814: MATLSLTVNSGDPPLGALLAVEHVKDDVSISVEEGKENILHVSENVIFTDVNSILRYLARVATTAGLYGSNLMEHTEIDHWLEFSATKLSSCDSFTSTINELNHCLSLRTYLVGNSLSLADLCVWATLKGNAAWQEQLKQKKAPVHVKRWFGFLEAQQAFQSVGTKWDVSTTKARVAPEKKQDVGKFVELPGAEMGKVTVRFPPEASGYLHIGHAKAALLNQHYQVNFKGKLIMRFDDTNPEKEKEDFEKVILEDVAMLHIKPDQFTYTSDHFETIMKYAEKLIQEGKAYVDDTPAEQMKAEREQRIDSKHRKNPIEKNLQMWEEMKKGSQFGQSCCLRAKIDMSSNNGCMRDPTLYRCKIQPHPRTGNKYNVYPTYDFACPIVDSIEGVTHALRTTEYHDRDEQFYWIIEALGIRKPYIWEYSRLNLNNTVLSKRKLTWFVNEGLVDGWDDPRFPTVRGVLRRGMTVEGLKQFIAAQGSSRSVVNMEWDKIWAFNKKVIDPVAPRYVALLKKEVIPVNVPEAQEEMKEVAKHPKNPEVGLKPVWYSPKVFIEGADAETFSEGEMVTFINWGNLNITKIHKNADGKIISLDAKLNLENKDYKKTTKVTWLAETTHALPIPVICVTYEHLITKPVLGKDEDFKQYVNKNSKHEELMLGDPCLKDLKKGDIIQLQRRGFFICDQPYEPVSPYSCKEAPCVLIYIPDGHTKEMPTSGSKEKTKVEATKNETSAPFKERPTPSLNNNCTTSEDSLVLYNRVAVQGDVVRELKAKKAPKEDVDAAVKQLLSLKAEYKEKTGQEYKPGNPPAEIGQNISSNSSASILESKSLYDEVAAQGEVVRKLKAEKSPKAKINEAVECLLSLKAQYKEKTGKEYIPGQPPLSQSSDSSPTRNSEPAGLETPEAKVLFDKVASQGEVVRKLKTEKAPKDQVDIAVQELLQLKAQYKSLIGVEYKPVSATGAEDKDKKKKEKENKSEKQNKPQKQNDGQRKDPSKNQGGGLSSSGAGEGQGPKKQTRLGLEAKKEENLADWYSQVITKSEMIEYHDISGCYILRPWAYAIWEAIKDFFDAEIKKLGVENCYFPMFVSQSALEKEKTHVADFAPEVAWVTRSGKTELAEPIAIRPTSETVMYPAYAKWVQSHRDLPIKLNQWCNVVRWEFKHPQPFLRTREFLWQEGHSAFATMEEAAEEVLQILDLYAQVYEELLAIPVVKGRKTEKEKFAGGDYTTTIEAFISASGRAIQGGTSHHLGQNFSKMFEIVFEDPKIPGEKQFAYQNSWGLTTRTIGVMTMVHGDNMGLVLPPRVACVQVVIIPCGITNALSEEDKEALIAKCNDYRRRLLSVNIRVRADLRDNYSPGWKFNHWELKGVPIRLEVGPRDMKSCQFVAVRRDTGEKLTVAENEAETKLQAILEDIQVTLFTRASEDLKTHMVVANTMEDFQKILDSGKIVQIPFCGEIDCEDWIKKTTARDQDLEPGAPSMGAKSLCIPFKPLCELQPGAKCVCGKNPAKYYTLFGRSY
UniProt Q9BQ52: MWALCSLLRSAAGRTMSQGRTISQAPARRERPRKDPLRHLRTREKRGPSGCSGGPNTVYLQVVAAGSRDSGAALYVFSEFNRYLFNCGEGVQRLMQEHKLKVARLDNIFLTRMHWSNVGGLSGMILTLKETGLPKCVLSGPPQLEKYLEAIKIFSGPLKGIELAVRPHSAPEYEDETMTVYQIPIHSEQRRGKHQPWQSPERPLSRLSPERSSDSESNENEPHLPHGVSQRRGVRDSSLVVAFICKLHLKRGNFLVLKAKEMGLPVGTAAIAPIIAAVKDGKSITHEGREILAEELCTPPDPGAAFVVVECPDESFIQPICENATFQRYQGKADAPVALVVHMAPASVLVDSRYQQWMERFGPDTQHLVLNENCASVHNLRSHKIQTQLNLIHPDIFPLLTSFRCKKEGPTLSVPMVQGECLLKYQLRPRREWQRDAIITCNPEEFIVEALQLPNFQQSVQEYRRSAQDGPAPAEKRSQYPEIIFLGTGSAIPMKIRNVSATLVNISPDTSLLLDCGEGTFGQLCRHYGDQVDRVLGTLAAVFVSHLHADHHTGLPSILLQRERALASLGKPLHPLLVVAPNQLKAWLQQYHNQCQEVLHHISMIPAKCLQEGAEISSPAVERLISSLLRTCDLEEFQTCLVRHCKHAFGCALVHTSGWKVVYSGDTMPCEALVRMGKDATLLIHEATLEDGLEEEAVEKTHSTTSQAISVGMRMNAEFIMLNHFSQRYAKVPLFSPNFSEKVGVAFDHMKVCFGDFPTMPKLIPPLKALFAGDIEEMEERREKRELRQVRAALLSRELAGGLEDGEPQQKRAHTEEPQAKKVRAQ
UniProt Q9NPA8: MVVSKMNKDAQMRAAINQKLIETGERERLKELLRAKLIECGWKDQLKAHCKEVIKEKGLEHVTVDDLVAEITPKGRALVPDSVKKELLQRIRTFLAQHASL
UniProt P55010, whole entry, looked up: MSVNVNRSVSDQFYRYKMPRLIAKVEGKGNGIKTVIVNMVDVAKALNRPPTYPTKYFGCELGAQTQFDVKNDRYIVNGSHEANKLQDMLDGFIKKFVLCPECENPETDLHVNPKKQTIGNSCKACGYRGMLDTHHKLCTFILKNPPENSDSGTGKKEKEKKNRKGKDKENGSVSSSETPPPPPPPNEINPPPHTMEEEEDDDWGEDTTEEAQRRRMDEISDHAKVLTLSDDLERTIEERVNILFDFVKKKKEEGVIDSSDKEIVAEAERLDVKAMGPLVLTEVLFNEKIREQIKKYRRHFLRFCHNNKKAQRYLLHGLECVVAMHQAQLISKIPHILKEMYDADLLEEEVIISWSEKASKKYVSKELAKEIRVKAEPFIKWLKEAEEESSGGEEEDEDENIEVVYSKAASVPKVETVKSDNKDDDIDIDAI

Compound: Cc1cc(ccc1-c1ccccc1)C(=O)N1CCCN(CC1)C(=O)CCl [compound 10]
Test: probe-labelled cysteine peptide fold change vs DMSO (competition) (log2 fold change); higher = less target engagement (more negative = stronger competition)
Conditions: THP-1, incubation time: 4 h
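Further: competitive profiling in live THP-1 cells: cysteine peptides tagged with an iodoacetamide desthiobiotin (IA-DTB) probe, intensity after compound treatment relative to DMSO-treated cells.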

ELP2_Q6IA86_13_VAPVLETSHVFCCPNR (UniProt Q6IA86)
probe-labelled cysteine peptide fold change (10 µM): -0.124
probe-labelled cysteine peptide fold change (50 µM): -0.24

EIF3M_Q7L2H7_134_VAASCGAIQYIPTELDQVRK (UniProt Q7L2H7)
probe-labelled cysteine peptide fold change (10 µM): -0.0129
probe-labelled cysteine peptide fold change (50 µM): 0.342

EIPR1_Q53HC9_198_WSPHHNCTQVATANDTTLR (UniProt Q53HC9)
probe-labelled cysteine peptide fold change (10 µM): -0.11
probe-labelled cysteine peptide fold change (50 µM): -0.389

EIF3I_Q13347_99_TCGFDFGGNIIMFSTDK (UniProt Q13347)
probe-labelled cysteine peptide fold change (10 µM): 0.105
probe-labelled cysteine peptide fold change (50 µM): 0.152

EPG5_Q9HCE0_318_QLLLAEAELLTLTSDCQNAK (UniProt Q9HCE0)
probe-labelled cysteine peptide fold change (10 µM): -0.0281
probe-labelled cysteine peptide fold change (50 µM): 0.284

EPRS_P07814_105_LSSCDSFTSTINELNHCLSLR (UniProt P07814)
probe-labelled cysteine peptide fold change (10 µM): 0.472
probe-labelled cysteine peptide fold change (50 µM): 0.105

EMC1_Q8N766_587_TTAHFPHPPQCTLLVK (UniProt Q8N766)
probe-labelled cysteine peptide fold change (10 µM): 0.14
probe-labelled cysteine peptide fold change (50 µM): -0.00966

EPS15_P42566_586_VCSELDNNR (UniProt P42566)
probe-labelled cysteine peptide fold change (10 µM): -0.0714
probe-labelled cysteine peptide fold change (50 µM): -0.222

EIF4ENIF1_Q9NRA8_767_SSCSTPLSQANR (UniProt Q9NRA8)
probe-labelled cysteine peptide fold change (10 µM): -0.12
probe-labelled cysteine peptide fold change (50 µM): -0.5

ELF2_Q15723_110_TIEAAEALLHMESPTCLR (UniProt Q15723)
probe-labelled cysteine peptide fold change (10 µM): -0.353
probe-labelled cysteine peptide fold change (50 µM): -0.495

EIF5B_O60841_1092_HIAVFPCK (UniProt O60841)
probe-labelled cysteine peptide fold change (10 µM): 0.115
probe-labelled cysteine peptide fold change (50 µM): -0.0625

EML4_Q9HC35_617_QVCLWNSMEHR (UniProt Q9HC35)
probe-labelled cysteine peptide fold change (10 µM): 0.0952
probe-labelled cysteine peptide fold change (50 µM): 0.0026

EPRS_P07814_337_KGSQFGQSCCLR (UniProt P07814)
probe-labelled cysteine peptide fold change (10 µM): -0.0803
probe-labelled cysteine peptide fold change (50 µM): -0.327

ERCC2_P18074_491_VCLCPMIIGR (UniProt P18074)
probe-labelled cysteine peptide fold change (10 µM): 0.0515
probe-labelled cysteine peptide fold change (50 µM): -0.804

ELAC1_Q9H777_130_TMELSHTELVFHYVVHELVPTADQCPAEELK (UniProt Q9H777)
probe-labelled cysteine peptide fold change (10 µM): -0.11
probe-labelled cysteine peptide fold change (50 µM): 0.115

ELP2_Q6IA86_38_GLLAFGTSCSVVLYDPLK (UniProt Q6IA86)
probe-labelled cysteine peptide fold change (10 µM): -0.0438
probe-labelled cysteine peptide fold change (50 µM): 0.156

ELAC2_Q9BQ52_245_DSSLVVAFICK (UniProt Q9BQ52)
probe-labelled cysteine peptide fold change (10 µM): -0.161
probe-labelled cysteine peptide fold change (50 µM): 0.432

EIF5A2_Q9GZV4_22_ADEIDFTTGDAGASSTYPMQCSALRK (UniProt Q9GZV4)
probe-labelled cysteine peptide fold change (10 µM): -0.0868
probe-labelled cysteine peptide fold change (50 µM): -0.294

EPG5_Q9HCE0_1586_QYVNREEQTTLHLECR (UniProt Q9HCE0)
probe-labelled cysteine peptide fold change (10 µM): 0.0905
probe-labelled cysteine peptide fold change (50 µM): -0.0417

ELMSAN1_Q6PJG2_502_CGVEFSEPSLATK (UniProt Q6PJG2)
probe-labelled cysteine peptide fold change (10 µM): -0.195
probe-labelled cysteine peptide fold change (50 µM): -0.222

EP300_Q09472_1247_RKNDTLDPELFVECTECGR (UniProt Q09472)
probe-labelled cysteine peptide fold change (10 µM): -0.109
probe-labelled cysteine peptide fold change (50 µM): -0.00924

ENY2_Q9NPA8_40_LIECGWK (UniProt Q9NPA8)
probe-labelled cysteine peptide fold change (10 µM): 0.0115
probe-labelled cysteine peptide fold change (50 µM): 0.0468

EIF4EBP1_Q13541_62_FLMECR (UniProt Q13541)
probe-labelled cysteine peptide fold change (10 µM): 0.0443
probe-labelled cysteine peptide fold change (50 µM): -0.0435

ELAC2_Q9BQ52_670_VVYSGDTMPCEALVR (UniProt Q9BQ52)
probe-labelled cysteine peptide fold change (10 µM): -0.257
probe-labelled cysteine peptide fold change (50 µM): -0.582

EIF5_P55010_102_FVLCPECENPETDLHVNPK (UniProt P55010)
probe-labelled cysteine peptide fold change (10 µM): 0.0375
probe-labelled cysteine peptide fold change (50 µM): 0.085

ERCC3_P19447_284_CIHLEYPLLAEYDFR (UniProt P19447)
probe-labelled cysteine peptide fold change (10 µM): 0.0218
probe-labelled cysteine peptide fold change (50 µM): -0.239

ENO1_P06733_339_SCNCLLLK (UniProt P06733)
probe-labelled cysteine peptide fold change (10 µM): 0.149
probe-labelled cysteine peptide fold change (50 µM): 0.0192

EIF4G1_Q04637_1516_YLCDEQK (UniProt Q04637)
probe-labelled cysteine peptide fold change (10 µM): -0.105
probe-labelled cysteine peptide fold change (50 µM): 0.0982

EIF5_P55010_99+102_FVLCPECENPETDLHVNPK (UniProt P55010)
probe-labelled cysteine peptide fold change (10 µM): 0.0984
probe-labelled cysteine peptide fold change (50 µM): -0.336

ELAC2_Q9BQ52_51_RGPSGCSGGPNTVYLQVVAAGSR (UniProt Q9BQ52)
probe-labelled cysteine peptide fold change (10 µM): -0.177
probe-labelled cysteine peptide fold change (50 µM): -0.351

ELAC1_Q9H777_266_LCFEADLLIHEATLDDAQMDK (UniProt Q9H777)
probe-labelled cysteine peptide fold change (10 µM): 0.0528
probe-labelled cysteine peptide fold change (50 µM): -0.0432

EIF4G3_O43432_928_NHDEESLECLCR (UniProt O43432)
probe-labelled cysteine peptide fold change (10 µM): 0.183
probe-labelled cysteine peptide fold change (50 µM): -0.0438

ELP1_O95163_414_QTVVPPPMCTYQLLFPHPVNQVTFLAHPQK (UniProt O95163)
probe-labelled cysteine peptide fold change (10 µM): -0.103
probe-labelled cysteine peptide fold change (50 µM): 0.0129

ELL_P55199_411_DCEHGEAAAPAPTVR (UniProt P55199)
probe-labelled cysteine peptide fold change (10 µM): 0.00359
probe-labelled cysteine peptide fold change (50 µM): 0.847

ENOPH1_Q9UHY7_52_EYLQTHWEEEECQQDVSLLR (UniProt Q9UHY7)
probe-labelled cysteine peptide fold change (10 µM): 0.0256
probe-labelled cysteine peptide fold change (50 µM): 0.239

EIF5B_O60841_749_CPFIVALNK (UniProt O60841)
probe-labelled cysteine peptide fold change (10 µM): 0.0355
probe-labelled cysteine peptide fold change (50 µM): 0.299

ERCC2_P18074_116_NLCIHPEVTPLR (UniProt P18074)
probe-labelled cysteine peptide fold change (10 µM): -0.0927
probe-labelled cysteine peptide fold change (50 µM): -0.272
